The target in this test is T1, N-terminal GST-SNAP23 fusion (pET41a) (UniProt O09044).
T1 sequence: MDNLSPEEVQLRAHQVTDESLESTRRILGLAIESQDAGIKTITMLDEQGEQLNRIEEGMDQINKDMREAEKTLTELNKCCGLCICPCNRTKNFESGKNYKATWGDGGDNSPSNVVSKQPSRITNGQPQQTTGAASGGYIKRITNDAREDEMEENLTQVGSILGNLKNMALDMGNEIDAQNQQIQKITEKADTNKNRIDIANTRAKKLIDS
As to the kind of experiment: pull-down; co-purification: syntaxin 4 (pQE30) and GST-SNAP23 (pET41a) co-expressed in BL21 DE3; lysate in A200 with 4% Triton on glutathione sepharose overnight at 4 C, washed, released with thrombin.

By UniProt entry, the sequences of proteins in these tests, tags left out.
UniProt Q08850: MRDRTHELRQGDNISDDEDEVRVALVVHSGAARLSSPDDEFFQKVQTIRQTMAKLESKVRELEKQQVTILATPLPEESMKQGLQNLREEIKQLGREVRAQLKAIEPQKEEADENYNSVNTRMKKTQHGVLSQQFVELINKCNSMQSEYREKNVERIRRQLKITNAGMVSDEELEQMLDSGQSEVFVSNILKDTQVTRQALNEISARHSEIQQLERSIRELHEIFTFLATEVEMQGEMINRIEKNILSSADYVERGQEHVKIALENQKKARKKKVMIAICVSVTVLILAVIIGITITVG

No constants are given. Whether binding was seen depends on the method and setting. In cells and extracts the contact can be indirect. Some results given as binding are weak or reduced against the parent protein; the word gives no strength. Sequences can lack the tags named with a protein.

“syntaxin 4, entire coding sequence (pQE30) (from UniProt Q08850 1-298)”: the binding entry is listed as “binds”.
